Assay results as given in US20240109903A1, “SUBSTITUTED HETEROCYCLES FOR TREATING CANCER” (Northwestern University, priority 2022, published 2024).
Some entries share one result that the patent states for a list of compounds.

What follows are compounds tested on MV-4-11 acute myeloid leukemia cells (assay: CellTiter-Glo 2.0 cell viability, MV-4-11). Details: bound stated; read-out: IC50 against MV-4-11 acute myeloid leukemia cells.
Type: cell-based, human
Procedure: 2019 October; 94(4): 1813-1823.
Cell viability was assessed using the CellTiter-Glo 2.0 assay from Promega, which yields a signal proportional to the amount of ATP present in a cell population. Compounds were first dispensed into empty 96-well flat-bottom tissue culture-treated plates (Corning) using an Echo550. MV4-1 cells were diluted to a density of 0.1 million cells per ml, pipetted onto the compounds at a density of 1,000 cells per well for U937 and 3,000 cells per well for MV4-11, mixed, and incubated for 3 days at 37° C. with 5% C02. After incubating, 5 μl of cells from each well were added to 5 μl of CellTiter-Glo 2.0 reagent in a384-well white ProxiPlate (PerkinElmer), incubated for 20 minutes at ambient temperature, and luminescence was analyzed on an EnSpire plate reader. Graphing and regression analysis was performed in Graphpad Prism.

SMILES | IC50
FC(F)(F)c1cc2c(Cl)ncnc2n1CCN1CCCCC1 [NUCC-0226679] | < 1 µM
OC1CCC(Cn2c(C(F)(F)F)cc3c(Cl)ncnc32)CC1 (stereo not shown) [NUCC-0226689] | < 1 µM
O=C1CCCN1CCn1c(C(F)(F)F)cc2c(Cl)ncnc21 [NUCC-0226439] | < 1 µM
CC(C)(C)OC(=O)N1CCN(CCn2c(C(F)(F)F)cc3c(Cl)ncnc32)CC1 [NUCC-0226681] | < 1 µM
COc1cc(Cn2c(C(F)(F)F)cc3c(Cl)ncnc32)ccn1 [NUCC-0226694] | < 1 µM
FC(F)(F)CN1CCC(Cn2c(C(F)(F)F)cc3c(Cl)ncnc32)CC1 [NUCC-0226701] | < 1 µM
Cc1n[nH]c(C)c1CCn1c(C(F)(F)F)cc2c(Cl)ncnc21 [NUCC-0226684] | < 1 µM
FC(F)(F)CN1CC(Cn2c(C(F)(F)F)cc3c(Cl)ncnc32)C1 [NUCC-0226672] | < 1 µM
CC(C)(O)CCn1c(C(F)(F)F)cc2c(Cl)ncnc21 [NUCC-0226440] | < 1 µM
FC(F)(F)c1cc2c(Cl)ncnc2n1Cc1cccnc1 [NUCC-0226690] | < 1 µM
FC(F)(F)c1cc2c(Cl)ncnc2n1CCN1CCOCC1 [NUCC-0226680] | < 1 µM
Fc1ccc(N2CC(Cn3c(C(F)(F)F)cc4c(Cl)ncnc43)C2)c(F)c1 [NUCC-0226695] | < 1 µM
FC(F)(F)c1cc2c(Cl)ncnc2n1CCC1CCNCC1 [NUCC-0226692] | < 1 µM
